From article PMC5442318, “Hundreds of dual-stage antimalarial molecules discovered by a functional gametocyte screen” (Nature Communications, 2017) come the findings set out here.

This series deals with HepG2 cells. As to the kind of experiment: HepG2 cytotoxicity assay. It counts as cell-based. The conditions noted are these: HepG2 TOX50 versus Pf FGAA IC50. The procedure:
After incubation, plates and CellTiter-Glo Reagent (G7571, Promega) were equilibrated at room temperature for 30 min before proceeding to develop the luminescent signal. Using a Multidrop combi dispenser, 25 μl per well of the signal developer were added to the plates and after 10 min at room temperature for stabilization, plates were read on the ViewLux system (Perkin Elmer).
In the case of `Cc1ccc(-c2nc3cc(NC(=O)c4ccc([N+](=O)[O-])o4)ccc3o2)cc1Cl` [TCMDC-123657], the Selectivity ratio came out at 1.27.
For `CCN(CC)CCCn1c(N)c(-c2nc3ccccc3[nH]2)c2nc(C#N)c(C#N)nc21` [TCMDC-123680], the Selectivity ratio is given as 5.79.
On to `Cc1ccnc(NC(c2ccc(Cl)c([N+](=O)[O-])c2)c2ccc3cccnc3c2O)c1` (stereo not shown) [TCMDC-123691], for which the Selectivity ratio is reported as 15.84.
As for `OC1CCN(c2cc(-c3ccccn3)nc(-c3ccccn3)n2)CC1` [TCMDC-123786], the Selectivity ratio was 9.15.
As to `COc1ccc(-c2csc3ncnc(Cl)c23)cc1` [TCMDC-123805], the Selectivity ratio was 0.38.
Take `Clc1ccc(-c2csc3ncnc(Cl)c23)cc1` [TCMDC-123811]: the Selectivity ratio amounted to 60.12.
Turning to `COc1cc2nc(N3CCN(c4nc(N)c5cc(OC)c(OC)cc5n4)CC3)nc(N)c2cc1OC` [TCMDC-123865], the Selectivity ratio is 89.78.
`O=C(Nc1nc(-c2ccccn2)cs1)c1ccc(Br)s1` [TCMDC-123868]: the Selectivity ratio amounted to 32.14.
Consider `CCCC(=O)NC(c1ccc(C(C)C)cc1)c1ccc2cccnc2c1O` (stereo not shown) [TCMDC-123884], for which the Selectivity ratio was >65.
`CCOc1ccc(-n2nc3c(Cl)nnc(-c4ccccc4)c3c2-c2ccccc2)cc1` [TCMDC-123899]: the Selectivity ratio was >106.38.
For the compound `OCCN1CCN(c2ccc(Nc3ccnc4cc5ccccc5cc34)cc2)CC1` [TCMDC-123915], the Selectivity ratio turned out to be 1.63.
With `CCc1cc2c(Sc3nnc(N)s3)ncnc2s1` [TCMDC-123993], the Selectivity ratio was determined as 44.35.
For the compound `Cc1ccnc(NC(c2cccc(Cl)c2Cl)c2ccc3cccnc3c2O)c1` (stereo not shown) [TCMDC-123997], the Selectivity ratio is 23.97.
Take `[O-][s+]1c(Cl)c(-c2ccc(Cl)cc2)c2ccc(Cl)cc21` (stereo not shown) [TCMDC-124011]: the Selectivity ratio came to 310.09.
`Cc1cc(I)ccc1Nc1nc2nonc2nc1Nc1ccc(I)cc1C` [TCMDC-124083]: the Selectivity ratio turned out to be 0.86.
Take `FC(F)(F)c1cccc(Nc2nc3ccccc3nc2Nc2cccc(C(F)(F)F)c2)c1` [TCMDC-124162]: the Selectivity ratio amounted to 7.38.
In the case of `CC(C)C1=CC(=NOS(=O)(=O)c2ccccc2)C=C(C(C)C)C1=O` [TCMDC-124172], the Selectivity ratio turned out to be 24.74.
For `CCN1CCN(c2ccc(Nc3c4ccccc4nc4ccccc34)cc2)CC1` [TCMDC-124255], the Selectivity ratio is 4.56.
On to `Cl.c1ccc2c(NCCCCCCCCCNc3c4ccccc4nc4ccccc34)c3ccccc3nc2c1` [TCMDC-124286], for which the Selectivity ratio was determined as 2.73.
For `Cc1ccc(Cl)c2sc(N3CCN(C(=O)c4ccc([N+](=O)[O-])o4)CC3)nc12` [TCMDC-124311], the Selectivity ratio is on record as 17.93.
Under `Cc1ccc(C)c2sc(N3CCN(C(=O)c4ccc([N+](=O)[O-])o4)CC3)nc12` [TCMDC-124315] stands 33.48.
For `C=CCN(C(=O)c1ccc(Cl)c([N+](=O)[O-])c1)c1nc(-c2ccccc2)cs1` [TCMDC-124436], the Selectivity ratio is on record as >769.23.
With `CC(C)(C)Nc1cc(C2CC2)nc(-c2ccccn2)n1` [TCMDC-124453], the Selectivity ratio is >1,000.
Under `Cn1c(Sc2ncnc3sccc23)nc2ccccc21` [TCMDC-124514] stands >80; under `Cc1sc2ncnc(Sc3nnc(N)s3)c2c1C` [TCMDC-124542], 47.05.
For `c1ccn2c(Sc3ncnc4sccc34)ncc2c1` [TCMDC-124602] the value was >416.67.
With `Cc1ccc2c(c1)c(C1CCN(C(=O)c3ccc([N+](=O)[O-])o3)CC1)cn2C` [TCMDC-124787], the Selectivity ratio stood at 13.60.
Under `COc1ccc(OC)c(-c2cccc(-c3cccc(NC(=O)c4ccc([N+](=O)[O-])o4)c3)n2)c1` [TCMDC-124799] stands 3.77.
On to `O=C(c1ccc([N+](=O)[O-])o1)N1CCC(Cc2ccc(C(F)(F)F)cc2)CC1` [TCMDC-124805], for which the Selectivity ratio is given as 174.28.
`Cc1sc2nc(CN3CCCC3)nc(-n3c(NCCO)nc4ccccc43)c2c1C` [TCMDC-124811]: the Selectivity ratio amounted to 3.65.
Consider `CCCc1cc(=O)[nH]c(-n2nc(C)cc2NC(=O)CC(c2ccccc2)c2ccccc2)n1` [TCMDC-124940], for which the Selectivity ratio was >76.92.
For `CCOc1ccc2nc3cc(NC(=O)c4ccco4)ccc3c(N)c2c1` [TCMDC-125004], the Selectivity ratio was determined as 5.53.
On to `Cc1ccccc1OCC(O)CNC1CCC(NCC(O)COc2ccccc2C)CC1` (stereo not shown) [TCMDC-125142], for which the Selectivity ratio worked out at 3.66.
As to `O=C(c1ccc([N+](=O)[O-])o1)N1CCN(c2nc3c(F)cc(F)cc3s2)CC1` [TCMDC-125149], the Selectivity ratio is >76.34.
As to `CNCCCNCc1ccc(-c2ccc(F)c(Cl)c2)o1.Cl` [TCMDC-125237], the Selectivity ratio came to 5.68.
For `Cc1ccc(-n2c(Sc3ncnc4sccc34)nnc2N2CCCC2)cc1` [TCMDC-125247] the value was 181.00; for `CC(Nc1cc(-c2ccccn2)nc(-c2ccccn2)n1)c1ccccc1` (stereo not shown) [TCMDC-125420], 29.80.
Regarding `c1ccc(CNc2cc(-c3ccccn3)nc(-c3ccccn3)n2)cc1` [TCMDC-125421], the Selectivity ratio came to 40.15.
In the case of `O=C(Nc1nc(-c2ccccn2)cs1)c1ccc(S(=O)(=O)N2CCc3ccccc32)cc1` [TCMDC-125432], the Selectivity ratio amounted to 27.41.
Turning to `Cc1c(Cl)cccc1N=C(S)NN=Cc1ccccn1` [TCMDC-125487], the Selectivity ratio is >3,333.33.
For `Fc1ccc(NC(S)=NN=Cc2ccccn2)cc1` [TCMDC-125521], the Selectivity ratio was >3,333.33.
Under `SC(=Nc1ccc(Cl)c(Cl)c1)NN=Cc1ccccn1` [TCMDC-125522] stands 41.70; under `c1ccc2sc(Sc3ncnc4sccc34)nc2c1` [TCMDC-125539], >714.29; under `Fc1ccc2nc(Nc3nc(-c4ccccn4)cs3)sc2c1` [TCMDC-125540], 1073.05.
Consider `Oc1c(C(Nc2ccccn2)c2ccc(Cl)cc2Cl)ccc2cccnc12` (stereo not shown) [TCMDC-125559], for which the Selectivity ratio amounted to 11.16.
Under `O=C(Nc1cc(C(F)(F)F)cc(C(F)(F)F)c1)Nc1ccc(Cl)c(Cl)c1` [TCMDC-125592] stands 2.15; under `CCCC(N)C(=O)NC1CCN(c2c(F)c(N)c3c(=O)c(C(=O)O)cn4c3c2Oc2ccccc2-4)C1.Cl` (stereo not shown) [TCMDC-125701], 1.41; under `ON=C(c1nc2ccccc2[nH]1)c1nc2ccccc2[nH]1` [TCMDC-125758], 14.86.
In the case of `c1ccc(-c2nc(NC3CCCCC3)cc(C3CC3)n2)nc1` [TCMDC-125825], the Selectivity ratio was found to be 307.80.
As for `CC(C)(C)c1cc(NC2CC2)nc(-c2ccccn2)n1` [TCMDC-125826], the Selectivity ratio is reported as >833.33.
Under `COc1ccc2nc3cc(Cl)ccc3c(N)c2c1.Cl` [TCMDC-125835] stands 2.32; under `CCN(CCNS(C)(=O)=O)c1ccc(N)c(C)c1.O.O=S(=O)(O)O` [TCMDC-125836], 22.91; under `COc1ccc(CCNCCCCCCNCCc2ccc(-c3ccccc3)cc2)cc1OC.Cl` [TCMDC-131267], 5.49.
Under `Br.Oc1ccc(CCNCCCCCCNCCc2ccc(-c3ccccc3)cc2)cc1O` [TCMDC-131268] stands 1.21; under `COc1ccc(CCNCCCCCCNCCc2ccc(Cl)c3ccccc23)cc1OC.Cl` [TCMDC-131270], 3.67; under `Br.Oc1ccc(CCNCCCCCCNCCc2ccc(Cl)c3ccccc23)cc1O` [TCMDC-131271], 4.72.
On to `COc1ccc(CCNCCCCCCNCCc2ccc(Cl)cc2)c(Cl)c1OC.Cl` [TCMDC-131272], for which the Selectivity ratio came to 6.69.
With `Br.CC(C)(Cc1ccc(Cl)cc1)NCCCCCCNCCc1ccc(O)c(O)c1` [TCMDC-131277], the Selectivity ratio worked out at 1.14.
`Br.CCCCc1ccc(CCNCCCCCCNCCc2ccc(O)c(O)c2)cc1` [TCMDC-131281]: the Selectivity ratio turned out to be 2.16.
For `CCC(CSC1CCCCC1)N(C)CCN(C)C(CC)CSC1CCCCC1.Cl` (stereo not shown) [TCMDC-131456] the value was 0.05; for `C[C@H](Cc1ccc(C[C@@H](C)NC[C@H](O)c2cccc(Cl)c2)cc1)NC[C@H](O)COc1ccccc1.Cl` [TCMDC-131549], 3.72; for `C[C@H](Cc1ccc(CCc2ccc(C[C@@H](C)NC[C@H](O)c3cccc(Cl)c3)cc2)cc1)NC[C@H](O)c1cccc(Cl)c1.Cl` [TCMDC-131551], 2.08.
Consider `C[C@H](Cc1ccc(Oc2ccc(C[C@@H](C)NC[C@H](O)c3cccc(Cl)c3)cc2)cc1)NC[C@H](O)c1cccc(Cl)c1.Cl` [TCMDC-131560], for which the Selectivity ratio was found to be 2.82.
Under `C[C@H](Cc1ccc(OCCCCCOc2ccc(C[C@@H](C)NC[C@H](O)c3cccc(Cl)c3)cc2)cc1)NC[C@H](O)c1cccc(Cl)c1.Cl` [TCMDC-131563] stands 2.20; under `C[C@H](Cc1ccc(OCCCCCCOc2ccc(C[C@@H](C)N[C@H](C)c3ccccc3)cc2)cc1)NC[C@H](O)c1cccc(Cl)c1.Cl` [TCMDC-131564], 5.97.
Consider `N=C(/N=C(/NCCCCCCN/C(=N\C(=N)Nc1ccc(Cl)cc1)N1CCCCC1)N1CCCCC1)Nc1ccc(Cl)cc1` [TCMDC-131811], for which the Selectivity ratio is given as 5.62.
Consider `N=C(/N=C(/NCCCCCCN/C(=N/C(=N)NCc1ccc(Cl)c(Cl)c1)N1CCCCC1)N1CCCCC1)NCc1ccc(Cl)c(Cl)c1` [TCMDC-131816], for which the Selectivity ratio is listed as 16.52.
Turning to `CCN(CC)/C(=N/C(=N)NCc1ccc(Cl)cc1Cl)NCCCCCCN/C(=N\C(=N)NCc1ccc(Cl)cc1Cl)N(CC)CC` [TCMDC-131819], the Selectivity ratio amounted to 7.73.
Consider `CCCCN(CCCC)/C(=N/C(=N)NCc1ccc(Cl)c(Cl)c1)NCCCCCCN/C(=N\C(=N)NCc1ccc(Cl)c(Cl)c1)N(CCCC)CCCC` [TCMDC-131821], for which the Selectivity ratio stood at 5.55.
Under `COc1cc2nc(NCCCN3CCCCC3)nc(NCc3ccccc3)c2cc1OC` [TCMDC-132012] stands 7.62.
